Data reported in US8859466B2, “Oxaspirocyclic spiro-substituted tetramic acid and tetronic acid derivatives” (Bayer CropScience AG, priority 2007, dated 2014).
Some results were stated once for a whole list of compounds, not compound by compound.

Experiments:
Test in all cases: Herbicidal pre-emergence action
Type in all cases: in vivo
Settings in all cases: pre-emergence method, 320 g/ha of a.i., visual assessment after 3 weeks
Setaria viridis = test system: Setaria viridis
Lolium multiflorum = test system: Lolium multiflorum
Echinocloa crus-galli = test system: Echinocloa crus-galli

Measured: herbicidal activity in percent

CCOC(=O)OC1=C(c2c(CC)cc(C)cc2C2CC2)C(=O)NC12CCC1(CCCO1)CC2 (stereo not drawn) [Example I-1-c-13]
≥ 80%: all assays above

Cc1cc(C)c(C2=C(OC(=O)C3CC3)C3(CCC4(CCCO4)CC3)NC2=O)c(C)c1 (single isomer, unassigned) [Example I-1-b-5]
≥ 80%: all assays above

CCOC(=O)OC1=C(c2c(CC)cc(C)cc2CC)C(=O)NC12CCC1(CCCO1)CC2 (single isomer, unassigned) [Example I-1-c-11]
≥ 80%: all assays above

CCOC(=O)OC1=C(c2c(C)cc(C)cc2Cl)C(=O)NC12CCC1(CCCO1)CC2 (single isomer, unassigned) [Example I-1-c-15]
≥ 80%: all assays above

CCOC(=O)OC1=C(c2c(C)cc(C)cc2CC)C(=O)NC12CCC1(CCCO1)CC2 (single isomer, unassigned) [Example I-1-c-12]
≥ 80%: all assays above

CCOC(=O)OC1=C(c2c(C)cc(Br)cc2CC)C(=O)NC12CCC1(CCCO1)CC2 (single isomer, unassigned) [Example I-1-c-16]
≥ 80%: all assays above

CCOc1cc(Cl)cc(CC)c1C1=C(O)C2(CCC3(CCCO3)CC2)NC1=O (mixture of isomers) [Example I-1-a-12]
≥ 80%: all assays above

CCc1cc(C)cc(CC)c1C1=C(O)C2(CCC3(CCCO3)CC2)NC1=O (single isomer, unassigned) [Example I-1-a-51]
≥ 80%: all assays above

CCOC(=O)OC1=C(c2c(C)cc(C)cc2C)C(=O)NC12CCC1(CCCO1)CC2 (stereo not drawn) [Example I-1-c-1]
≥ 80%: all assays above

Cc1ccc(-c2ccc(Cl)cc2)c(C)c1C1=C(O)C2(CCC3(CCCO3)CC2)NC1=O (stereo not drawn) [Example I-1-a-2]
≥ 80%: all assays above

COc1cc(Cl)cc(C)c1C1=C(O)C2(CCC3(CCCO3)CC2)NC1=O (single isomer, unassigned) [Example I-1-a-40]
≥ 80%: all assays above

COCC(=O)OC1=C(c2c(C)cc(C)cc2C)C(=O)NC12CCC1(CCCO1)CC2 (single isomer, unassigned) [Example I-1-b-7]
≥ 80%: all assays above

Cc1cc(Br)cc(C)c1C1=C(O)C2(CCC3(CCCO3)CC2)NC1=O (mixture of isomers) [Example I-1-a-8]
≥ 80%: all assays above

CCc1cc(C)cc(C2CC2)c1C1=C(O)C2(CCC3(CCCO3)CC2)NC1=O (single isomer, unassigned) [Example I-1-a-54]
≥ 80%: all assays above

COc1cc(C)cc(C)c1C1=C(OC(=O)C(C)C)C2(CCC3(CCCO3)CC2)OC1=O (stereo not drawn) [Example I-2-b-2]
≥ 80%: all assays above

COc1cc(C)cc(C)c1C1=C(OC(=O)C(C)C)[C@]2(CC[C@@]3(CCCO3)CC2)OC1=O [Example I-2-b-1]
≥ 80%: all assays above

Cc1cc(C)c(C2=C(OC(=O)C(C)C)C3(CCC4(CCCO4)CC3)NC2=O)c(C)c1 (stereo not drawn) [Example I-1-b-1]
≥ 80%: all assays above

CCc1cc(Cl)cc(OC)c1C1=C(O)C2(CCC3(CCCO3)CC2)NC1=O (mixture of isomers) [Example I-1-a-11]
≥ 80%: all assays above

Cc1cc(C)c(C2=C(O)C3(CCC4(CCCO4)CC3)NC2=O)c(C)c1 (mixture of isomers) [Example I-1-a-4]
≥ 80%: all assays above

CCc1cc(C)cc(Br)c1C1=C(O)C2(CCC3(CCCO3)CC2)NC1=O (mixture of isomers) [Example I-1-a-10]
≥ 80%: all assays above
